# These are yes or no findings as the source states them, for the method shown. A result given as binding can be weak or reduced; the word gives no strength.
# B1: Aeropyrum pernix elongation factor aEF1A (ApeEF1A), GTP-bound form (protein, UniProt Q9YAV0 1-437)
# chain: MAEKPHMNLVVIGHVDHGKSTLVGHLLYRLGYIEEKKLKELEEQAKSRGKESFKFAWILDKMKEERERGITIDLTFMKFETKKYVFTIIDAPGHRDFVKNMITGASQADAAILVVSARKGEFEAGMSTEGQTREHLLLARTMGIEQIIVAVNKMDAPDVNYDQKRYEFVVSVLKKFMKGLGYQVDKIPFIPVSAWKGDNLIERSPNMPWYNGPTLVEALDQLQPPAKPVDKPLRIPVQNVYSIPGAGTVPVGRVETGVLRVGDKVVFMPPGVVGEVRSIEMHYQQLQQAEPGDNIGFAVRGVSKSDIKRGDVAGHLDKPPTVAEEFEARIFVIWHPSAITVGYTPVIHVHTASVSSRIIEIKAKLDPKTGQVVEQNPQFLKAGDAAIVRFKPVKPLVVEKFSEIPQLGRFAMRDMNRTVGIGIVTDVKPAKVDIKAK
# Target: Aeropyrum pernix aP1 lacking the C-terminal F111 (ApeP1 ΔF111) (Aeropyrum pernix)
# Experiment: native gel or EMSA; ApeP1 WT or ∆F111 (200 pmol) incubated with 100, 200 and 400 pmol of ApeEF1A•GTP; Native-PAGE as in Nomura et al., 2012; Coomassie staining; both purified
binder,measurement,value
B1,binding,binds

# Reference: article PMC6791870, “Switch of the interactions between the ribosomal stalk and EF1A in the GTP- and GDP-bound conformations” (Scientific Reports, 2019)
